This passage reports z-score results from PubChem BioAssay AID1347423 (Functional Genomics Laboratory (NCATS/FGL), 2020).

The whole screen tested about 52,000 sequences, of which about 210 (0.4%) were called active.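 Rule for the calls: active = gene whose silencing raises cell survival under the drug, median off-target-corrected z-score across its silencing RNAs 2 or more; inactive = the rest.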 The list shows a part of the results.

A short description of the assay: Resistance to Poly (ADP-Ribose) Polymerase inhibitor: Gene Identification via Genome-wide siRNA Screen. To be noted: mouse BRCA2 R2336H ES cells, olaparib, CellTiter-Glo viability; stronger effect = higher value. A digest of the protocol:
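Mouse BRCA2 R2336H ES cells were reverse-transfected with siRNA (20 nM final), treated at 48 h with 500 nM olaparib, and read by CellTiter-Glo after 72 h. Scores: MAD-based z per siRNA, median per gene, seed off-target correction.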
A general note: Cellular ATP, detected with luciferase, serves as a proxy for viable cell number.
For “CCGUCACAAUAGUCUCUGATT against 1300007F04Rik”, the z-score was inactive: -1.88.
Then CGCGCAGUUUGAAAACUAUTT against 8-Sep, with inactive: 0.0261; and “GGUUCCGAAUGGAGACUUGTT against 1700006H02Rik”, with inactive: -1.15.
Then GCCAUGUUAACAUGAUGAUTT against AI595366, with inactive: -0.698; and “GGGAGCUCCUUACAGAGACTT against 1700041G16Rik”, with inactive: 0.482; and GCUGCUCAAUCGGAAAUACTT against Clk1, with inactive: -0.495.
As to GGGCCAUCCUUUGGUUACATT against Dtnb, the z-score is inactive: -1.06.
Consider GCGGUUCUAAGGAUACCGATT against Txnl5, for which the z-score was inactive: 0.645.
For CGCCUCUAACUUAAUGUUUTT against Dnajc8 the value was inactive: -0.328; for “GCCUCAGACAGACUUCUUGTT against 2400006N03Rik”, inactive: -2.29; for GCCGAAGAACUAAAAGACUTT against Cyb5, inactive: -0.204.
Then GCGACAAAUCAAAAAGGCCTT against Dnajb9, with inactive: 0.296; and GGAACACAAUGGAGACACATT against Prdm15, with inactive: 2.01.
For GGAACAGUCGUGGUAAAGUTT against BC003262 the value was inactive: -3.45; for GGCAGAGAAAACAAGAUUATT against Arc, inactive: 0.321; for “GGACAGCCACCCAUCUGAATT against 1210002B07Rik”, inactive: -0.719.
As for GGCUGACAGUAACAAGUGGTT against Fignl1, the z-score was inactive: -2.11.
With GGCGAACACCAUGAAAAGGTT against Lin7b, the z-score was inactive: -1.39.
Then GGUUAUGGUUUUGUUGACUTT against Rbms1, with inactive: 0.699; and CGAGUAAAAGAGAUCUACATT against Eya1, with inactive: 0.0596; and GGCAAUACAAACAAGUUCUTT against Klhdc2, with inactive: 0.488.
Then “GCCGUUGGUCGUGUUCGUUTT against 0610011D08Rik”, with inactive: -0.774.
For the sequence GGAGGAAAGACGAAUCAACTT against Clcn7, the z-score is inactive: -0.795.
For “GGCAAAAAGAAGCUGAUGATT against 2900036G02Rik” the value was inactive: 0.939; for CCCUUACAUCACACAGGACTT against BC005764, inactive: 2.21.
Then GGAGUUCCUCAAGAAUUUUTT against Arpc4, with inactive: 0.81; and AACCGAACUGAUAAGAACUTT against Bag5, with inactive: -0.155; and GCUUUAAGUCGUAAUCUAGTT against Ank, with inactive: 1.47.
For GGCUUUCUUUGUCUUCUCCTT against Adcy3 the value was inactive: -0.754.
Consider GGUGCUAAAGGAGCUUCUGTT against Commd4, for which the z-score was inactive: -1.84.
Turning to “CCCAGAAUAGAGGAGAACATT against 4933427D14Rik”, the z-score was inactive: 0.0843.
Then “CCCUAACUGUAUGGACCAUTT against D11Ertd99e”, with inactive: 1.51.
For GGGAAAGCAUCGUAGACUCTT against Cri2 the value was inactive: 1.05.
Then GCUAUUUCUGCCUUUAGUCTT against Scamp5, with inactive: 0.591; and GACCUUGGUUAUUCUACAGTT against Olfr1087, with inactive: -1.8; and GCAUGCAGCCUAUGGAUGCTT against LOC545558, with inactive: 0.166.
As to GGGAGUUGUAGUAUUAGUATT against Zfp94, the z-score was inactive: 0.571.
Then CCCGCUUUUUUUUCUGGACTT against Ndufa8, with inactive: 0.546.
Then CGGCGAUGAGAUUUUCCAUTT against H2-Ea, with inactive: -0.152; and CGAUGGUGGUUCUUAUUUUTT against Otx1, with inactive: 0.97; and CGACUAAGGAUGAAAAGCATT against Apbb1ip, with inactive: -1.57.
For GGUCAUCAGUGAUCAGUCATT against Mre11a the value was inactive: -0.33; for “GGAUGUACUAGCUGAGAUUTT against A730016F12Rik”, inactive: 0.513.
For GGGACUGUACAACCACUCUTT against En1, the z-score is inactive: -1.01.
GGUUGUGCAACACAGCUCUTT against Olfr218: the z-score was inactive: -0.161.
Then “GGAAGUGCUAUUAAUUGUUTT against 4631402N15Rik”, with inactive: 0.234; and GGACCUGAAUUCCACUCCUTT against Socs1, with inactive: 0.722; and GGUUAUUUCUCUCUCCCUATT against Creld1, with inactive: -0.155.
As to GGCAAUGGGAAAAUCGUGUTT against Gp5, the z-score is inactive: 0.546.
For CCGAAUGGAAUACCAAAUUTT against Cst8 the value was inactive: -0.186; for “GGAGGUAAUUACAUAAUGGTT against 9930022D16Rik”, inactive: 0.704; for “GGGAAGGACUGUAAGAAAATT against 2900024C23Rik”, inactive: 0.862.
Then GGGUUUUUGUUAGAUGUUATT against Rab3b, with inactive: 0.437; and GCCCUAGGAGGAACUGAGUTT against Olfr458, with inactive: -2.63; and GGUGGCAAAGUGGUGAUCCTT against Fabp7, with inactive: 0.724.
For GCUUUGGUUGCUAACCCAATT against Matp the value was inactive: 1.39; for CCACUGACAUUCCUAUUAUTT against Capn6, inactive: -1.21; for “CCUCACUAAGUGAGCCUUCTT against 4930543L23Rik”, inactive: -0.841.
As to GGUGAAAAAAACAGGAUCCTT against Wnt11, the z-score is inactive: 1.06.
For GGAUCUUCGUACUAGAGGCTT against Stra13 the value was inactive: 0.118.
Turning to GGAAAAGGUGUCUUCCGUGTT against Crybb2, the z-score is inactive: 0.609.
For GGCCUAAAUGUGGAUUUUGTT against Phf6 the value was inactive: 0.853.
In the case of CCAUAUCUUUAGCUCCACATT against Gm191, the z-score was inactive: 0.199.
For “GGAAGCUGUUUGAACUCGCTT against C330016O16Rik”, the z-score was inactive: 1.16.
